From PubChem BioAssay AID1347076 (National Center for Advancing Translational Sciences (NCATS), 2019)
Out of some 400,000 compounds screened, about 13,000 (3.2%) were called active. The shares of active, inactive and inconclusive entries below differ from those in the screen. The call rests on the fitted dose curve; in most records, active means well fitted cell-killing curve with a large enough effect; inconclusive means small, poorly fitted or top-dose-only effect, or effect the other way; inactive means flat fitted curve, though single readings scatter. A potency beside an inconclusive call is a rough fit, not a confirmed value.

Assay: qHTS assay for MDR1-selective chemotherapeutics: Primary screen using the drug-selected MDR subline cells KB-V1; further: nearly all actives have a fitted effect of over 60% in size
Conditions: KB-V1 MDR cells viability, CellTiter-Glo, 72 h; series mostly up to 46.1 µM
Outline: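 In this primary screen, KB-V1 cells overexpressing P-gp are incubated with library compounds (lowest to highest concentration) for 72 h at 37 degrees C before a luminescent ATP viability read.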
Potency means the concentration at half of the fitted maximal effect.

Compound | Potency
C/C1=C\CCC2C(/C=C(\C)CC1)OC(=O)C2CN1CCCCC1 (stereo not given) | inconclusive: 8.2 µM [cytotoxic, partial curve, poor fit]
CCCn1c(C)nc2c(c1=O)c1nc3ccccc3nc1n2CCC1=CCCCC1 | inconclusive: 18.4 µM [cytotoxic, partial curve, poor fit]
O=C(N/N=C/c1ccc(F)cc1)c1sccc1OCc1ccc(F)cc1 | active: 7.31 µM
CC(C)c1ccc(OCC(=O)Nc2cccc3c2CCCC3)cc1 | inconclusive: 18.4 µM [cytotoxic, single point]
COc1ccc(-c2cc(C(=O)NC(C)c3ccccn3)c3ccccc3n2)cc1OC (stereo not given) | inconclusive: 29.1 µM [cytotoxic, single point]
O=C(N/C(=C/c1ccc(Cl)cc1)C(=O)N1CCCC1)c1ccccc1 | inconclusive: 23.1 µM [rising, single point]
C=CCc1ccc(OCCOCCOc2ccc(C)cc2[N+](=O)[O-])c(OC)c1 | inconclusive: 11.6 µM [cytotoxic, partial curve, poor fit]
CCOC(=O)/C=C(C)\C=C\c1c[nH]c2ccccc12 | inactive
COc1cccc2c(SCC(=O)N/N=C/c3ccccc3)cc(C)nc12 | inconclusive: 29.1 µM [cytotoxic, single point]
O=C(Nc1nnc(-c2ccc(Cl)cc2)o1)NC1CCCCC1 | inactive
CCc1ccc(OCC(=O)NC(NC(=S)Nc2ccc(Cl)cc2)C(Cl)(Cl)Cl)cc1 (stereo not given) | active: 3.66 µM
Cc1cc(C)c2c(-n3cccc3)c(C(=O)NNS(=O)(=O)c3ccc(Cl)cc3)sc2n1 | inactive
CCN(CC(=O)Nc1ccc(OC)cc1)CC(=O)Nc1ccc(Cl)cc1F | inconclusive: 10.3 µM [cytotoxic, partial curve, poor fit]
CCOC(=O)CC(=O)CSc1nnc(Cn2c(=O)sc3ccccc32)n1C | inconclusive: 29.1 µM [cytotoxic, single point]
O=C(Nc1ccc(C(F)(F)F)cc1)c1ccccc1Br | inactive
CC(C)NC(=O)CCC(=O)N1Cc2ccccc2Oc2ncccc21 | inconclusive: 23.1 µM [rising, single point]
C(=N\Nc1ccc2nncn2n1)/c1ccccn1 | inconclusive: 14.6 µM [cytotoxic, single point]
Cc1cc(C)c(C2=Nn3c(C)nnc3SC2C)cc1C (stereo not given) | inactive
CNc1ccc2nnc(C(F)(F)C(F)(F)C(F)(F)F)n2n1 | inconclusive: 14.6 µM [rising, single point]
COc1ccc(C(=O)N/C(=C\c2ccco2)C(=O)OCc2ccco2)cc1 | inactive
Cc1ccccc1N=C/C=C1\N(C)c2ccccc2C1(C)C | active: 23.1 µM
CCC1CCCCN1C(=O)CSc1nc2c([nH]c3ccccc32)c(=O)n1-c1ccc(OC)cc1 (stereo not given) | inconclusive: 29.1 µM [cytotoxic, single point]
Cc1ccc(S(=O)(=O)N(C)C)cc1NC(=O)COC(=O)C1CC1 | inconclusive: 20.6 µM [rising, single point]

As entered above.
For Potency, `CCCn1c(C)nc2c(c1=O)c1nc3ccccc3nc1n2CCC1=CCCCC1` has the entry inconclusive: 18.4 µM [cytotoxic, partial curve, poor fit]
For Potency, `O=C(N/N=C/c1ccc(F)cc1)c1sccc1OCc1ccc(F)cc1` has the entry active: 7.31 µM

Remaining list, next part:

Compound | Potency
O=C(CC(=O)c1ccncc1)c1ccccc1 | active: 18.4 µM
O=C(CCS(=O)(=O)c1ccccc1)N(CCCN1CCOCC1)c1nc2ccc(F)cc2s1 | inconclusive: 29.1 µM [cytotoxic, single point]
CCN(C(=O)COC(=O)c1cccc(S(=O)(=O)NCc2ccccc2)c1)c1ccccc1 | inconclusive: 18.4 µM [cytotoxic, single point]
CCCCc1[nH]c(=O)c(C#N)c2c1CSC(C)(C)C2 | inconclusive: 7.08 µM [rising, partial curve, poor fit]
CCSc1nnc(NC(=O)CSc2nc(C)cc(C)n2)s1 | inconclusive: 1.46 µM [cytotoxic, full curve]
COc1ccc(CC(=O)Nc2ccc(N(C)C)c3ccccc23)cc1 | inconclusive: 23.1 µM [cytotoxic, single point]
Cc1cc(/C=C2/NC(=O)N(c3ccccc3)C2=O)c(C)n1-c1cccnc1 | inconclusive: 20.6 µM [cytotoxic, partial curve]
COc1ccc(C(=O)NCCc2c[nH]c3ccccc23)cc1S(=O)(=O)N1CCOCC1 | inactive
O=C(NCCOc1ccccc1Cl)c1cccc2c1C(=O)c1ccc(Cl)cc1S2(=O)=O | inactive
CC(CN1c2ccccc2Sc2ccccc21)N(C)C (stereo not given) | inconclusive: 8.2 µM [cytotoxic, partial curve]
Cc1cnc(SCc2cnc(C)nc2N)nc1 | inconclusive: 16.4 µM [rising, single point]
Cc1cc(Cl)ccc1NS(=O)(=O)c1c(C)[nH]c(=O)[nH]c1=O | inconclusive: 29.1 µM [rising, single point]
COC(=O)C1=C(C)N(C)C(=O)NC1c1ccc(O)c(OC)c1 (stereo not given) | inconclusive: 4.11 µM [rising, full curve, poor fit]
O=C(Nc1cccc(C(=O)N2CCN(c3ccccc3)CC2)c1)c1ccco1 | inconclusive: 2.31 µM [cytotoxic, full curve]
Cc1cccc(NC(=O)Nc2cccc3ccccc23)c1 | inactive
COc1ccc(CNC(=O)C[C@H]2C(=O)N(C3CCCCC3)C[C@@H]2Cc2ccccc2)cc1 | inconclusive: 29.1 µM [cytotoxic, single point]
CC(NC(=O)[C@H](C)NC(=O)c1ccco1)c1ccc(S(N)(=O)=O)cc1 (stereo not given in full) | inconclusive: 29.1 µM [rising, single point]
COc1ccc(Nc2cc3n(c(=O)n2)CCc2cc(OC)c(OC)cc2-3)c(C)c1 | inactive
Cc1ccc(C(C)C)c(OC(C)C(=O)NCC2(N(C)C)CCCCC2)c1 (stereo not given) | inconclusive: 14.6 µM [cytotoxic, partial curve]
COc1ccc(NC(=O)c2sccc2SCC#N)cc1 | inconclusive: 16.4 µM [cytotoxic, single point]
NS(=O)(=O)c1ccc(CCNC(=O)CN2CCN(c3ccccc3F)CC2)cc1 | inactive
Cc1ccc(SCC(=O)OCC(=O)NCC2CCCCC2)cc1C | inactive
